## Primary screen of a compound library

Sequences of proteins named here, by UniProt entry; tags and fusion partners are left off.
UniProt P9WFT3, whole entry: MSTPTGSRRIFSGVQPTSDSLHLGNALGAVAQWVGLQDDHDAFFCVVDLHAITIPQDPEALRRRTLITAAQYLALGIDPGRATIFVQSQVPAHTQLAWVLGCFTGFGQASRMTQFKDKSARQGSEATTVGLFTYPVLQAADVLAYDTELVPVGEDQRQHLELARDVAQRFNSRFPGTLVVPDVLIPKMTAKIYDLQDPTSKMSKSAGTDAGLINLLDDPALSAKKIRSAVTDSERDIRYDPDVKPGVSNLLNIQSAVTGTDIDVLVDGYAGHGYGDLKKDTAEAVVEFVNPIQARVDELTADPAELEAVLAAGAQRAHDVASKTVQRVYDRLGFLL
UniProt I6X8D2, whole entry: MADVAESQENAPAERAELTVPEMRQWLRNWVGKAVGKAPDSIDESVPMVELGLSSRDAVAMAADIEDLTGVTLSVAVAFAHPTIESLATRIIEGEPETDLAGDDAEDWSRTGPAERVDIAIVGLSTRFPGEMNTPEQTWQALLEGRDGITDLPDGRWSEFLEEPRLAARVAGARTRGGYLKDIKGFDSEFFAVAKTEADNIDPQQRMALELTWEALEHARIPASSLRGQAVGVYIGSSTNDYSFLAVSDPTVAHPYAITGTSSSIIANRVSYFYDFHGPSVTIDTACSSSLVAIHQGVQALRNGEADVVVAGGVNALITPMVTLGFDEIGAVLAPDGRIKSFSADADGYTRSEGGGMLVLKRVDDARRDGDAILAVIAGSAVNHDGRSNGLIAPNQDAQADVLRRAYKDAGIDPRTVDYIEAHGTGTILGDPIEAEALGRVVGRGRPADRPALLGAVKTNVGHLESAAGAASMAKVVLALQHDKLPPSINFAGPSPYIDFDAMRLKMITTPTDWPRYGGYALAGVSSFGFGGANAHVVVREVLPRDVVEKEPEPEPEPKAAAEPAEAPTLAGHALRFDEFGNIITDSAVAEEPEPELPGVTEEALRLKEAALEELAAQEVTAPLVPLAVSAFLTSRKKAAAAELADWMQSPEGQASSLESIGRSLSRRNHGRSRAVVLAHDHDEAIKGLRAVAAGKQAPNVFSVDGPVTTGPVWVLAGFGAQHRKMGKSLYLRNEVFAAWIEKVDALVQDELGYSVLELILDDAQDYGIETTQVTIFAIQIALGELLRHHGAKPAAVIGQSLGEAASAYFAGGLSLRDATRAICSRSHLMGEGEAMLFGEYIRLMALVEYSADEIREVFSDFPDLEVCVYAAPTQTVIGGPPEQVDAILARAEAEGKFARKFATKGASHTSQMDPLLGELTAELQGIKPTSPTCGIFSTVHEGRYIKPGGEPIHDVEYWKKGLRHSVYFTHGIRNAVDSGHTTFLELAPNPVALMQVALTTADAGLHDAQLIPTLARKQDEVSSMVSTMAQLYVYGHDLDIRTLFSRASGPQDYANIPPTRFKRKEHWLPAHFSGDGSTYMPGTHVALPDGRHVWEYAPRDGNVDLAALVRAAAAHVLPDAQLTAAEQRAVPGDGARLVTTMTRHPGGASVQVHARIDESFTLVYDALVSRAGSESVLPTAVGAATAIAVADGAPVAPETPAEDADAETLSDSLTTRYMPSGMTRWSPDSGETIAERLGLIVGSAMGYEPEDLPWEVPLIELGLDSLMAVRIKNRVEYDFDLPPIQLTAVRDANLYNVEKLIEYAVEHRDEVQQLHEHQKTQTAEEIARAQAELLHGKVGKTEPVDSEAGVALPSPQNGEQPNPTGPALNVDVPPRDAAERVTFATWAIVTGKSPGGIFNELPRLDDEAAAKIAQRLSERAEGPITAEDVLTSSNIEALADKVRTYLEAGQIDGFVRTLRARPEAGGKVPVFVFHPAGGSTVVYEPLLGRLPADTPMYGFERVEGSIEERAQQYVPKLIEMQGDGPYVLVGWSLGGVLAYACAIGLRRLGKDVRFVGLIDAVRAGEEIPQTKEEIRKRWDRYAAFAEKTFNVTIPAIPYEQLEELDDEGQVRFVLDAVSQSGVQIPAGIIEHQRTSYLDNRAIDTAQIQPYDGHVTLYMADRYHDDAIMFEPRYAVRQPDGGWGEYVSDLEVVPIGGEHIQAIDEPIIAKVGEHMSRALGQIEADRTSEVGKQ

Data taken from ChEMBL document CHEMBL3988442, “University of Dundee, Small-Polar-MMV Screening Library” (2021).

Results are given as percent effect.
The controls that fix the scale are not given in the record; negative values are as filed.
This is an unselected part of the compounds tested.

MtTrpRS: 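Tryptophan-tRNA ligase, Mycobacterium tuberculosis (UniProt P9WFT3). Enzyme assay of tryptophanyl-tRNA synthetase; the read-out is not stated. Concentration: 10 µM. Direction is not recorded; retested compounds ran higher, which suggests that high means inhibition. Size under these conditions: about 65,000 compounds, about 64 of them at 50% or above in at least one test.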
Pks13 thioesterase: 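Polyketide synthase Pks13, Mycobacterium tuberculosis (UniProt I6X8D2). Enzyme assay of the thioesterase domain of polyketide synthase 13; the read-out is not stated. Concentration: 30 µM. The record gives no direction; the compounds picked for IC50 retests had high values, so higher reads as stronger inhibition. Size under these conditions: about 67,000 compounds, about 300 of them at 50% or above in at least one test.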

* CCOCC(=O)NCCc1nc(C2CC2)cc(C(F)(F)F)n1 : MtTrpRS: 3.732%; Pks13 thioesterase: -10.85%
* Cn1cc(C2COC3(CCN(C(=O)c4ccn(C)n4)CC3)C2)cn1 (stereo not drawn) : MtTrpRS: -1.095%; Pks13 thioesterase: -8.744%
* COc1ccc(C2Nc3cc(Cl)ccc3C3=NCCN32)cc1OC (stereo not drawn) : MtTrpRS: 1.586%; Pks13 thioesterase: -34.33%
* CCN(CC)CCNC(=O)CCc1c(C)nn(-c2ccccc2Br)c1C : Pks13 thioesterase: -5.49%
* CCc1nn(C)c2[nH]nc(NC(=O)c3ccccc3COC)c12 : MtTrpRS: 1.928%; Pks13 thioesterase: -1.501%
* Cn1cc([C@@H]2CN(S(=O)(=O)c3cccnc3)C[C@H]2N)c2ccncc21 : MtTrpRS: -1.244%; Pks13 thioesterase: -7.517%
* Cc1ncsc1CCN(C)C(=O)CN1CC2(CCNCC2)OC1=O : MtTrpRS: 10.52%; Pks13 thioesterase: -10.11%
* CC(C)(C#N)c1ccccc1CN1CCC(N2CCCC2=O)CC1 : MtTrpRS: 7.977%; Pks13 thioesterase: -26.25%
* CCOCC(=O)N1CCC(Oc2ccc(C(F)(F)F)cn2)CC1 : MtTrpRS: -1.213%; Pks13 thioesterase: -16%
* CC(C)Cn1nc(-c2ccc(C(=O)O)cc2)cc1-c1ccc(F)cc1 : MtTrpRS: 7.376%; Pks13 thioesterase: 6.112%
* CC(C)(C)OC(=O)N1CCC[C@H](NCC2CCOCC2)C1 : MtTrpRS: -2.547%; Pks13 thioesterase: -12.8%
* CC(C)Oc1ccc(C(=O)N2CC[C@H](O)[C@@H](n3ccnc3)CC2)cc1 : Pks13 thioesterase: -32.35%
* CCCNC(=O)CNc1ccc(C(=O)N2CCCCC2C)cc1C (stereo not drawn) : MtTrpRS: -1.359%; Pks13 thioesterase: -1.056%
* CC(=O)N1CC(C(=O)Nc2cccc(OC(F)F)c2)C1 : MtTrpRS: -5.395%; Pks13 thioesterase: -35.22%
* O=C1CC2(CCN(CC3CCOC3)CC2)c2ccccc2N1CC1CC1 (stereo not drawn) : MtTrpRS: -4.797%; Pks13 thioesterase: -20.95%
* CCn1ncc2c1C(COC)CN(S(=O)(=O)N(C)C)C2 (stereo not drawn) : MtTrpRS: 4.805%; Pks13 thioesterase: -25.2%
* CC(C)(C)c1noc(CCCC(=O)N2CCCC(c3ccn[nH]3)C2)n1 (stereo not drawn) : MtTrpRS: -3.138%; Pks13 thioesterase: 1.53%
* Cn1cc(C(=O)NCc2ccc(OC3CCCCC3)nc2)ccc1=O : MtTrpRS: -1.329%; Pks13 thioesterase: -20.81%
* COCCN1CCC(c2nc3c([nH]2)CC(C)(C)CNC3=O)C1 (stereo not drawn) : MtTrpRS: 10.62%; Pks13 thioesterase: 2.683%
* Cc1cc(C[C@@H]2COC[C@@H]2NC(=O)CN2CCCC2)on1 : MtTrpRS: -1.924%; Pks13 thioesterase: -8.055%
* Cc1nc(C)n(CC2CCCN(Cc3ccc4c(c3)OCCO4)C2)n1 (stereo not drawn) : MtTrpRS: -4.72%; Pks13 thioesterase: 10.83%
* c1ccc(Cc2nnc(CN3CCOC(Cn4cccn4)C3)o2)cc1 (stereo not drawn) : MtTrpRS: -9.398%; Pks13 thioesterase: -3.833%
* COc1ncccc1NC(=O)c1cccc(C)n1 : MtTrpRS: -4.677%; Pks13 thioesterase: -4.606%
* Nc1ccc(CC2CCCN(Cc3c[nH]cn3)C2)nn1 (stereo not drawn) : MtTrpRS: -4.144%; Pks13 thioesterase: 2.204%
* Cc1cc(C)n(CC2CCCN2C(=O)Cc2c(C)nc(C)[nH]c2=O)n1 (stereo not drawn) : MtTrpRS: -10.31%
* CCCNCc1cn(C)nc1-c1cccnc1 : MtTrpRS: 3.018%; Pks13 thioesterase: -6.428%
* CC(C)Oc1ncccc1CNC(=O)c1ccc(=O)[nH]n1 : MtTrpRS: -6.356%; Pks13 thioesterase: -9.537%
* Cn1cc(NC(=O)c2cc3c(s2)CCCC3)cn1 : MtTrpRS: -11.33%; Pks13 thioesterase: -8.559%
* O=c1cc(Cn2ccnc2)nc2n1CCCN(Cc1ccncc1)C2 : MtTrpRS: 0.5533%
* Cc1ccc(Cl)cc1N1CCC(CNC(=O)Cn2cccn2)C1 (stereo not drawn) : MtTrpRS: -1.872%; Pks13 thioesterase: -3.967%
* CC(C)Oc1ccc(CC2=N[C@](C)(CO)CO2)cc1 : MtTrpRS: 0.4045%; Pks13 thioesterase: 8.991%
* CC1=N[C@@]2(CC[C@@H]3CN(C(=O)NC(C)C)C[C@@H]32)C(=O)N1CC(C)C : MtTrpRS: -0.09292%; Pks13 thioesterase: -18.84%
* CCCc1cc(C(=O)N2CCC3(CCCN(CCOC)C3=O)C2)cs1 (stereo not drawn) : MtTrpRS: -5.088%
* O[C@H]1[C@H](n2cc(CN3CCCC3)nn2)c2ccccc2C12CCNCC2 : MtTrpRS: -1.385%; Pks13 thioesterase: -22.1%
* COC(=O)C1CN(CC(=O)Nc2cc(F)ccc2F)c2ccccc21 (stereo not drawn) : MtTrpRS: -1.312%; Pks13 thioesterase: -13.41%
* Cc1[nH]c2ccccc2c1-c1ccnc(N[C@@H](C)CO)n1 : Pks13 thioesterase: 26.44%
* Cc1nc(C)n(CC2CN(CC(=O)NC3CCCC3)CCO2)n1 (stereo not drawn) : MtTrpRS: 4.966%; Pks13 thioesterase: -8.301%
* CN(C)CCN1CCO[C@H]2CN(C(=O)C3CCOCC3)C[C@H]21 : MtTrpRS: 3.004%; Pks13 thioesterase: -30.75%
* CC(=O)C1(c2ccccc2)CCN(C(=O)c2ccn3nnnc3c2)CC1 : MtTrpRS: -1.254%; Pks13 thioesterase: -36.14%
* CNC(=O)CN1CCC12CCN(C(=O)Cc1ccccc1)C2 (stereo not drawn) : MtTrpRS: -1.757%; Pks13 thioesterase: -10.18%
* Cc1[nH]c2c(F)cccc2c1CC(=O)N1CCC(NS(C)(=O)=O)CC1 : MtTrpRS: 0.8683%; Pks13 thioesterase: -8.389%
* CSCCC(=O)N1CCC(c2nnc(CN(C)CCO)n2C)CC1 : MtTrpRS: 7.033%; Pks13 thioesterase: -30.68%
* O=C(CSCc1ccccn1)NCC1CC1 : MtTrpRS: -3.649%; Pks13 thioesterase: -14.48%
* C[C@@H]1CN(c2nc3c(cc2C(N)=O)CCC3)C[C@]1(C)O : MtTrpRS: 1.713%; Pks13 thioesterase: 11.13%
* Cn1cc(CN2CC[C@H]3O[C@H](C(=O)Nc4cnccn4)CC[C@H]32)cn1 : MtTrpRS: 0.53%; Pks13 thioesterase: -2.921%
* COc1ccccc1CCN1CCCC(CN(C)Cc2c[nH]c(C)n2)C1 (stereo not drawn) : MtTrpRS: 3.807%; Pks13 thioesterase: -5.598%
* Cc1ccc(NC(=O)Cc2cnc3n(C)c(=O)[nH]c(=O)n23)cc1 : MtTrpRS: 1.296%; Pks13 thioesterase: -9.77%
* CC(C)(C)c1c[nH]c([C@@H]2COCCN2C2CCOCC2)n1 : MtTrpRS: 3.111%; Pks13 thioesterase: 9.768%

For reference, 4 entries once more:

{"compound": "CCn1ncc2c1C(COC)CN(S(=O)(=O)N(C)C)C2", "stereo": "stereo not drawn", "MtTrpRS": 4.805, "Pks13 thioesterase": -25.2}
{"compound": "CCN(CC)CCNC(=O)CCc1c(C)nn(-c2ccccc2Br)c1C", "Pks13 thioesterase": -5.49}
{"compound": "O=C(CSCc1ccccn1)NCC1CC1", "MtTrpRS": -3.649, "Pks13 thioesterase": -14.48}
{"compound": "CC(C)(C)c1noc(CCCC(=O)N2CCCC(c3ccn[nH]3)C2)n1", "stereo": "stereo not drawn", "MtTrpRS": -3.138, "Pks13 thioesterase": 1.53}